{"sequences": {"note": "The chains behind the UniProt entries cited, without tags or fusion partners. Residues count along the entry.", "UniProt P22607, 23-806": "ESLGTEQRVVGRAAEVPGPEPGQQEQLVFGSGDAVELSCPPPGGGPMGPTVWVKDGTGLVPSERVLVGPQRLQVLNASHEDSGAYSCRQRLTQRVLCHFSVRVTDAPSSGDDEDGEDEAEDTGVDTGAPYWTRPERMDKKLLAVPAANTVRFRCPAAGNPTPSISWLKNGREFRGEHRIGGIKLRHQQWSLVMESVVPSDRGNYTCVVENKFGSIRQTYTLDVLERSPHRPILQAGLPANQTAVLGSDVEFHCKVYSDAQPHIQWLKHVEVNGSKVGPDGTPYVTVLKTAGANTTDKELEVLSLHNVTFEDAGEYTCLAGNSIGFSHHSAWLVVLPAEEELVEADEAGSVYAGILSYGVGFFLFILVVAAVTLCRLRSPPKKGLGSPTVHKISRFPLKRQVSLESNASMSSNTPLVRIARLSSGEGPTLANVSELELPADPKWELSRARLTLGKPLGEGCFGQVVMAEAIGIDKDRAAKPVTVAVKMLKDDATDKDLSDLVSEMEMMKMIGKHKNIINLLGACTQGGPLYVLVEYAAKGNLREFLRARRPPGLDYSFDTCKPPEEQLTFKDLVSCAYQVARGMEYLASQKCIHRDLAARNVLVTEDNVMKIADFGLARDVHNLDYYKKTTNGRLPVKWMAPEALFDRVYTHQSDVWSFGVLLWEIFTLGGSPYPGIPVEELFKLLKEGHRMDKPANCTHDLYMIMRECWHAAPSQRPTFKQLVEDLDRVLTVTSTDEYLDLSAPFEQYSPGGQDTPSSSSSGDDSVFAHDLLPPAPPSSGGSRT"}, "source": "patent US10251892B2", "about": "“Bicyclic heterocycles as FGFR4 inhibitors” (Incyte Corporation, priority 2015, dated 2019)", "molecular_target": "FGFR3 enzyme (Homo sapiens (Human), UniProt P22607)", "experiment": "FGFR Enzymatic Assay (peptide phosphorylation, FRET), FGFR3", "assay_type": "biochemical", "conditions": "IC50 ratio showing FGFR3 selectivity; pre-incubated for 4 hours", "description": "The inhibitor potency of the exemplified compounds was measured in an enzyme assay that measures peptide phosphorylation using FRET measurements to detect product formation. Inhibitors were serially diluted in DMSO and a volume of 0.5 μL was transferred to the wells of a 384-well plate.\nGraphPad prism3 was used to analyze the data.", "note": "For at least one compound, name, drawing or mass did not settle the structure."}
{"smiles": "COc1cc(OC)c(F)c(N2Cc3cnc(-c4cnn(C5CN(S(C)(=O)=O)C5)c4)cc3C3(CC3)C2=O)c1F", "note": "[Example 55, 2′-(2,6-difluoro-3,5-dimethoxyphenyl)-6′-(1-(1-(methylsulfonyl)azetidin-3-yl)-1H-pyrazol-4-yl)-1′H-spiro[cyclopropane-1,4′-[2,7]naphthyridin]-3′(2′H)-one]", "values": [{"measurement": "FGFR1/FGFR3", "result": ">10"}, {"measurement": "FGFR4/FGFR3", "result": ">5"}]}
